Experimental data as given in patent US20230096137A1, “COMPOSITION FOR LITHOGRAPHY AND PATTERN FORMATION METHOD” (Mitsubishi Gas Chemical Company, Inc., priority 2020, published 2023).

Tests used:
[1] = Etching resistance relative to novolac PSM4357 underlayer film; conditions: Ar/CF4/O2 50:5:5 sccm, 50 W, 20 Pa, 2 min; vs novolac PSM4357
[2] = EUV sensitivity - TMAH aqueous solution development; conditions: resist MAR1 on 100 nm underlayer film, 2.38% TMAH development 60 seconds

Structure (SMILES)	Etch resistance [1]	Sensitivity [2] [mJ/cm2]
Oc1ccc2c3c(ccc2c1I)Oc1ccc2c(I)c(O)ccc2c1C3c1ccc(-c2ccccc2)cc1 [XBisN-3]	A (The difference in etching rate is smaller than that of the underlayer film of novolac by 10% or more in terms of the ratio to novolac.)	23
Oc1ccc2c3c(ccc2c1)Oc1ccc2cc(O)ccc2c1C3c1cccc(I)c1 [XbisN-1]	A (The difference in etching rate is smaller than that of the underlayer film of novolac by 10% or more in terms of the ratio to novolac.)	24
Oc1ccc(-c2ccc(O)c(C(c3cc(-c4ccc(O)cc4)ccc3O)c3cc(I)cc(I)c3O)c2)cc1 [BisB-2]	B (The difference in etching rate is within ±10% as compared with that of the underlayer film of novolac in terms of the ratio to novolac.)	23
Oc1ccc2c3c(ccc2c1)Oc1ccc2cc(O)ccc2c1C3c1ccc(-c2ccccc2)cc1 [XBisN-C1, reference compound]	A (The difference in etching rate is smaller than that of the underlayer film of novolac by 10% or more in terms of the ratio to novolac.)	31
CC(C)(COc1c(I)cc(N2CC=CC2)cc1I)COc1c(I)cc(N2CC=CC2)cc1I [BMI-1]	C (The difference in etching rate is larger than 10% as compared with that of the underlayer film of novolac in terms of the ratio to novolac.)	19
Cc1cc(C(c2ccc(I)cc2)c2cc(C)c(O)c(C)c2)cc(C)c1O [BisB-1]	B (The difference in etching rate is within ±10% as compared with that of the underlayer film of novolac in terms of the ratio to novolac.)	25
